This note sets out measurements from PubChem BioAssay AID2685 (National Center for Advancing Translational Sciences (NCATS), 2010).

A word on the AC50: it is the concentration giving half of the maximal activity seen. The low end stands for activity at low concentration, the high end for activity only at high concentration.

The list shows a part of the results. Shown are side measurements of this screen, not its main read-out; they come without a call. Most of these compounds were active or inconclusive in the main read-out, so they are no random draw. Potencies come from curve fits of mixed quality, noted in brackets.

This assay is described as follows: qHTS Assay for Lipid Storage Modulators in Drosophila S3 Cells.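 On cell number change: cells counted by Cell Tracker Red CMTPX staining in the red channel.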 Particulars: BODIPY lipid droplet fluorescence, 18-24 h; for cell number change: measured here: cell count max response, cells fed with added oleic acid. The method in brief: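 Drosophila S3 cells got compounds at several concentrations plus oleic acid (400 uM solution). Laser-scanning cytometry with 488 nm excitation read lipid droplets at 500-530 nm and cells at 575-640 nm. Percent activity was relative to 20 uM Triacsin C.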

Where [1] appears, read: measured here: lipid fluorescence (Fed channel) AC50, cells fed with added oleic acid.
[2] abbreviates: measured here: cell number channel AC50, cells fed with added oleic acid.

Turning to `COc1ccc(S(=O)(=O)N(CC(=O)N2CCN(C)CC2)c2ccc(C)cc2)cc1OC`, the cell number change was -1.52%. Further, the AC50 under setting [1] is 2.91 µM [rising, partial curve]. As to `O=C(COC(=O)c1cncc(Br)c1)NCc1ccc2c(c1)OCO2`, the cell number change is 37.4%. Under setting [2], the AC50 is 6.51 µM [falling, single point]. `Cc1ccc2oc(C(=O)NCCC3CCCCO3)c(C)c2c1` (stereo not drawn): the cell number change amounted to 6.94%. For the same compound, under setting [1], the AC50 was 0.58 µM [rising, single point].

For `Cc1cc(C)n2nc(SCC(=O)NC(=O)c3ccccc3Cl)nc2n1`, the cell number change is -13.1%. As for `COc1ccc(C2CC(c3ccccc3)=NN2C(=O)CSc2ncccn2)cc1` (stereo not drawn), the AC50 under setting [1] was 25.9 µM [falling, single point]. As for `CC1(C)Cc2c(cnn2-c2ccccc2)C(=O)/C1=N\NC(=O)c1ccccc1N`, the cell number change was -1.88%. Consider `CC(OC(=O)c1snc(C(=O)NC2CCCCC2)c1N)C(=O)NC(C)(C)C` (stereo not drawn), for which the cell number change is -44.6%. For the same compound, the AC50 under setting [2] is 20.6 µM [falling, single point]. Under setting [1], the AC50 is 18.4 µM [falling, single point].

For the compound `CCCCn1c(N)c(N(Cc2ccccc2OC)C(=O)c2c(CC)noc2C)c(=O)[nH]c1=O`, the cell number change was determined as 3.52%. The AC50 under setting [1] is 0.731 µM [rising, single point]. As for `Cc1ccc(S(=O)(=O)N2CCC(NC(=O)OC(C)C)CC2)cc1`, the cell number change is -38.5%. Under setting [2], the half-maximal activity concentration (AC50) was 0.517 µM [falling, full curve, poor fit]. The AC50 under setting [1] was 9.2 µM [falling, partial curve]. Turning to `Cn1c(Cc2ccccc2)nnc1SCC(=O)Nc1ccc2c(c1)OCCO2`, the cell number change was -12.6%. In addition, under setting [1], the half-maximal activity concentration (AC50) is 0.411 µM [falling, full curve, poor fit]. As for `O=C(CCC(=O)Nc1ccc(F)cc1)N/N=C/c1cccs1`, the cell number change came out at 15.5%. Further, under setting [1], the AC50 was 10 µM [rising, partial curve, poor fit]. For the compound `CN(C)/C=C/C(=O)/C=C/c1ccc(Cl)cc1Cl`, the cell number change turned out to be 28.5%. Under setting [1], the AC50 was 8.2 µM [rising, partial curve, poor fit].

For the compound `Cc1ccc2ncnc(Nc3ccc(C)c(C)c3)c2c1`, the cell number change was determined as 33.5%. Besides, the AC50 under setting [2] was 4.61 µM [rising, full curve, poor fit]. Under setting [1], the AC50 was 11.6 µM [falling, partial curve]. Turning to `O=C(Nc1ccc(-c2nnc(-c3ccco3)o2)cc1)C(c1ccccc1)c1ccccc1`, the cell number change is 39.4%. Besides, the AC50 under setting [2] was 18.4 µM [rising, single point]. Turning to `Cc1cccc(NS(=O)(=O)c2ccc(C(=O)NCC(c3ccco3)N(C)C)cc2)c1C` (stereo not drawn), the cell number change turned out to be 18.5%. The AC50 under setting [2] is 2.31 µM [rising, partial curve, poor fit]. Under setting [1], the AC50 was 0.206 µM [rising, full curve, poor fit]. With `CCC(C)(C(=O)NC1CCCCC1)N(C)C(=O)c1ccccn1` (stereo not drawn), the cell number change was -4.15%. `Cc1ccc(C2CC(=O)c3cnn(-c4nc(C)cc(C)n4)c3C2)cc1` (stereo not drawn): the cell number change was -49.3%. For the same compound, the AC50 under setting [2] was 29.1 µM [falling, single point]. The AC50 under setting [1] was 29.1 µM [falling, single point].

On to `CCOC(=O)Nc1ccc(NCc2ccc(F)cc2)nc1N`, for which the cell number change stood at 15.9%. Moreover, under setting [2], the AC50 is 6.51 µM [rising, single point]. On to `Cc1cccc(C(=O)N/C(=C\c2ccco2)C(=O)N2CCCC2)c1`, for which the cell number change was -3.36%. Moreover, the half-maximal activity concentration (AC50) under setting [1] was 16.4 µM [rising, single point]. Turning to `O=S(=O)(c1ccc(Cl)cc1)N1CN(CC2CCCO2)c2nc3ccccc3nc21` (stereo not drawn), the cell number change was determined as 11.9%. In addition, the AC50 under setting [1] is 29.1 µM [rising, single point]. For the compound `CC(C)Sc1nc2c(c(=O)n1C)SC(C)C2` (stereo not drawn), the cell number change was found to be 29.2%. Moreover, under setting [1], the AC50 was 0.092 µM [falling, full curve, poor fit]. As for `c1ccc2c(c1)OCCOCCOCCOCCOCCOc1ccccc1OCCOCCOCCO2`, the cell number change was -69.9%. Also, the AC50 under setting [2] was 4.11 µM [falling, partial curve, poor fit]. Also, the AC50 under setting [1] is 32.6 µM [falling, partial curve]. Take `O=S(=O)(Nc1ccc2nc(-c3ccc(Br)o3)[nH]c2c1)c1ccccc1`: the cell number change is -3.57%. Further, the AC50 under setting [1] is 3.66 µM [falling, single point].

Regarding `CC(NC(=O)c1cc(=O)[nH]c2ccccc12)c1ccc(F)cc1F` (stereo not drawn), the cell number change came out at 40.8%. Also, the AC50 under setting [2] was 29.1 µM [rising, single point]. Moreover, under setting [1], the AC50 is 11.2 µM [falling, partial curve].

For the compound `O=c1[nH]c(/C=C/c2ccccc2)c([N+](=O)[O-])c(=O)[nH]1`, the cell number change was -20.1%. Besides, under setting [1], the AC50 was 0.058 µM [falling, full curve, poor fit]. In the case of `Cc1cccc(-c2ccc(NC(=O)C3CCN(CC4CC4)CC3)cc2)c1`, the cell number change was found to be 11.9%. The AC50 under setting [1] was 0.13 µM [rising, full curve, poor fit].

For `CCCC(=O)Nc1ccc(-c2csc(-c3cccnc3)n2)cc1`, the cell number change is -28.3%. In addition, the AC50 under setting [1] is 29.1 µM [falling, single point]. As to `COc1cc(NC(=O)c2ccc(C)cc2)ccc1NC(=O)c1cc2ccccc2o1`, the cell number change was -13.5%. In addition, the AC50 under setting [2] is 4.61 µM [falling, single point].

For the compound `c1ccc(-n2c(Cc3cn4ccsc4n3)nnc2N2CCOCC2)cc1`, the cell number change came to 8.66%. The same measure, in the same setting: as for `Cc1ccc(S(=O)(=O)Nc2ccc(-c3nc4cc(NS(=O)(=O)c5ccc(C)cc5)ccc4o3)cc2)cc1`, the figure is -9.05%.

In the case of `COc1ccc(NC(=O)CSc2nccn2Cc2ccc(F)cc2)c(OC)c1`, the cell number change came out at 33.6%. Under setting [2], the AC50 is 4.11 µM [rising, full curve]. In addition, the AC50 under setting [1] is 0.517 µM [rising, full curve]. Consider `Cc1ccc(-c2nn(-c3ccccc3)cc2C(=O)NCC2CCCO2)cc1` (stereo not drawn), for which the cell number change is 4.02%.

On to `O=C(Nc1ccc(O)cc1)c1ccc2c(c1)C(=O)N(Cc1cccnc1)C2=O`, for which the cell number change came to 2.77%. The AC50 under setting [1] was 14.1 µM [rising, single point]. For `CCOP(=O)(c1ccccc1)C(O)c1ccc(Br)cc1` (stereo not drawn), the cell number change turned out to be 1.15%. On to `Cc1ccc(S(=O)(=O)c2nc(-c3ccccc3)oc2NCc2cccnc2)cc1`, for which the cell number change is 5.98%. Further, the AC50 under setting [1] is 0.291 µM [rising, full curve]. Turning to `CC(OC(=O)c1cc2ccccc2o1)C(=O)Nc1ccc(N2CCOCC2)cc1` (stereo not drawn), the cell number change is 27.4%. `COc1ccc2[nH]cc(CCNC(=O)C3CCCNC3=O)c2c1` (stereo not drawn): the cell number change was 25.3%. Besides, the AC50 under setting [1] is 9.2 µM [falling, single point]. `c1csc(-c2ccc3ccccc3n2)c1`: the cell number change is -15.6%. The AC50 under setting [2] is 6.51 µM [rising, partial curve, poor fit]. Further, the AC50 under setting [1] was 6.51 µM [rising, partial curve, poor fit]. `COC(=O)c1ccc(OC)c(Cn2c(=O)n(C)c(=O)c3sccc32)c1`: the cell number change is -9.26%. On to `COc1ccc(N(CC(=O)N/N=C/c2cccs2)S(=O)(=O)c2ccccc2)cc1`, for which the AC50 was 0.184 µM [rising, full curve] under setting [2] and 0.082 µM [rising, partial curve, poor fit] under setting [1]. For `CCN1C(=O)C(CC(=O)Nc2ccc(Br)cc2)N(CCCc2ccccc2)C1=S` (stereo not drawn), the cell number change was -26.3%.

For `CCCC(=O)c1cc(F)c(N2CCOCC2)cc1C`, the cell number change is -31.4%. Besides, the AC50 under setting [2] is 1.16 µM [falling, partial curve, poor fit]. Moreover, the AC50 under setting [1] was 6.51 µM [falling, single point]. In the case of `O=C(NCCc1ccccc1)c1ccc(CS(=O)(=O)c2ccc(Br)cc2)o1`, the cell number change was -52.9%. Also, under setting [2], the AC50 is 18.4 µM [falling, single point]. Moreover, the concentration at half-maximal activity (AC50) under setting [1] is 6.51 µM [falling, single point]. `COc1ccc(CCNC(=O)CN2C(=O)NC(CCSC)C2=O)cc1` (stereo not drawn): the cell number change is -25.5%. In the case of `COc1ccc(C(=O)Nc2ccnn2C2CCN(Cc3cccnc3)CC2)cc1`, the cell number change was determined as 18.8%. For `CC[n+]1c(/C=C/c2ccc(N(C)C)cc2)ccc2ccccc21`, the cell number change is -56%. Under setting [2], the AC50 is 11.6 µM [falling, partial curve]. For the same compound, under setting [1], the AC50 is 1.46 µM [falling, full curve]. On to `Cc1ccc(S(=O)(=O)NCc2n[nH]c(=S)n2C)cc1`, for which the cell number change was 1.83%. Moreover, the AC50 under setting [1] is 0.146 µM [rising, full curve, poor fit]. As for `COc1ccc(-c2cc(C(=O)Nc3cccnc3Cl)no2)cc1OC`, the cell number change is 10.4%. Further, under setting [1], the AC50 was 29.1 µM [rising, single point].

As to `Cc1ccc(C)c(S(=O)(=O)c2c[nH]c(=S)[nH]c2=O)c1`, the cell number change was -19.8%. Besides, the AC50 under setting [1] is 0.116 µM [falling, single point]. In the case of `CCOc1ccccc1N1CCN(Cc2cc3c(cc2[N+](=O)[O-])OCO3)CC1`, the cell number change was -12.5%. For the same compound, the AC50 under setting [1] was 18.4 µM [falling, single point].

For the compound `O=C(NCCCN1CCOCC1)c1cccc(S(=O)(=O)N2CCN(c3ccccc3)CC2)c1`, the cell number change turned out to be 23%. For the compound `CC(OC(=O)CCN=C1NS(=O)(=O)c2ccccc21)C(=O)NCc1ccccc1` (stereo not drawn), the cell number change was found to be 0.536%. Besides, the AC50 under setting [1] was 29.1 µM [falling, single point]. For the compound `COc1ccc(C)c2sc(N(CCN(C)C)C(=O)c3ccc4ccccc4c3)nc12`, the cell number change is 2.14%. The AC50 under setting [1] is 0.92 µM [rising, partial curve]. With `C/C(CC(=O)Nc1cc(C)ccn1)=N\NC(=O)c1cccc(F)c1`, the cell number change is -19.7%. In addition, the AC50 under setting [2] was 0.184 µM [falling, full curve, poor fit]. In the case of `Cc1ccc2c(c1)/C(=C/c1ccccc1C)C(=O)N2`, the cell number change is -12.6%.

Regarding `Cc1cc(S(=O)(=O)N(Cc2cccs2)Cc2ccccc2F)ccc1-n1cnnn1`, the cell number change turned out to be 49.3%. In addition, under setting [2], the AC50 is 3.26 µM [falling, partial curve, poor fit]. As to `O=C(NCCc1ccc2c(c1)OCCO2)c1cc2ccccc2o1`, the cell number change was determined as 14.4%. Also, under setting [1], the AC50 was 1.84 µM [rising, partial curve]. As for `S=C(Nc1cccnc1)NC1CCCC1`, the cell number change was 13%. Further, under setting [1], the AC50 is 0.461 µM [rising, full curve, poor fit]. On to `CC(=O)Nc1ccccc1NC(=O)c1cc(C)ccc1C`, for which the cell number change is 30%. The AC50 under setting [1] was 20.6 µM [rising, single point]. For the compound `Cc1ccc(C2(c3ccccc3)NC(=O)N(CC(=O)NC3CCCCC3)C2=O)cc1C` (stereo not drawn), the cell number change worked out at 24%.

With `CC1Cc2ccccc2N1C(=O)COC(=O)c1cccc(Br)c1` (stereo not drawn), the cell number change is -3.38%. Further, the AC50 under setting [1] is 2.06 µM [rising, partial curve, poor fit].
